Laboratory results taken from the supplement of paper PMC10849652.
This is one part of the list.

Sequences of proteins named here, by UniProt entry; tags and fusion partners are left off. A change or cut given only in a name is not applied to a line headed by its entry.
UniProt Q01581: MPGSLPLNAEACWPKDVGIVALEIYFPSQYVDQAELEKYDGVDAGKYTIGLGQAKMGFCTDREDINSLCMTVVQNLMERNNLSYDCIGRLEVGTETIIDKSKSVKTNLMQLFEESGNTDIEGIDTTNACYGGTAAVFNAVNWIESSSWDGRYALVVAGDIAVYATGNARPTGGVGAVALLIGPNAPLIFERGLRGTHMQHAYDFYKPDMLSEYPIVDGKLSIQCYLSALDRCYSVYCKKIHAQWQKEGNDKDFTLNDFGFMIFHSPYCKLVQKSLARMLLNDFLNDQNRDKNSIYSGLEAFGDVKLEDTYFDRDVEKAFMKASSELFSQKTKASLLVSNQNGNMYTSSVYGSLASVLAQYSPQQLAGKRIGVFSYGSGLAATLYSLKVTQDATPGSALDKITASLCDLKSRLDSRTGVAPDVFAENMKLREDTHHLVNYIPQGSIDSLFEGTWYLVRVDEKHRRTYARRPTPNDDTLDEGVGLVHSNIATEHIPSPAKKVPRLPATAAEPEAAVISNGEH
UniProt P34931, whole entry, looked up: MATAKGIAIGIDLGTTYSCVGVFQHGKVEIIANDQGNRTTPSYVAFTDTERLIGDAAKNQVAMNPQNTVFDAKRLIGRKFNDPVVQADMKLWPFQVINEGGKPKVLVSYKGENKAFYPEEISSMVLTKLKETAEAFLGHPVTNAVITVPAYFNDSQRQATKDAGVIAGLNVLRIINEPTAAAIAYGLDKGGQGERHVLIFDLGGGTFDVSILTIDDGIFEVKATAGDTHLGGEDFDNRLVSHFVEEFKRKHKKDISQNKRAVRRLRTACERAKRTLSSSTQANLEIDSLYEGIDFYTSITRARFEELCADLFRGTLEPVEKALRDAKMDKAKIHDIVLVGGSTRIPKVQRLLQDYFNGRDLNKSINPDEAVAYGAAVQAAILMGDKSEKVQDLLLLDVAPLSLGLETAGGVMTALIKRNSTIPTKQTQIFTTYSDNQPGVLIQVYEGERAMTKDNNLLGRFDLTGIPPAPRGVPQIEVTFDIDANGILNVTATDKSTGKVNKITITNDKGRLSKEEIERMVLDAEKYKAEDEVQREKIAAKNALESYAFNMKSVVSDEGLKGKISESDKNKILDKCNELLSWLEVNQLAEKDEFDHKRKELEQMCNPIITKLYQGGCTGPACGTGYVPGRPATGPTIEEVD
UniProt P50747: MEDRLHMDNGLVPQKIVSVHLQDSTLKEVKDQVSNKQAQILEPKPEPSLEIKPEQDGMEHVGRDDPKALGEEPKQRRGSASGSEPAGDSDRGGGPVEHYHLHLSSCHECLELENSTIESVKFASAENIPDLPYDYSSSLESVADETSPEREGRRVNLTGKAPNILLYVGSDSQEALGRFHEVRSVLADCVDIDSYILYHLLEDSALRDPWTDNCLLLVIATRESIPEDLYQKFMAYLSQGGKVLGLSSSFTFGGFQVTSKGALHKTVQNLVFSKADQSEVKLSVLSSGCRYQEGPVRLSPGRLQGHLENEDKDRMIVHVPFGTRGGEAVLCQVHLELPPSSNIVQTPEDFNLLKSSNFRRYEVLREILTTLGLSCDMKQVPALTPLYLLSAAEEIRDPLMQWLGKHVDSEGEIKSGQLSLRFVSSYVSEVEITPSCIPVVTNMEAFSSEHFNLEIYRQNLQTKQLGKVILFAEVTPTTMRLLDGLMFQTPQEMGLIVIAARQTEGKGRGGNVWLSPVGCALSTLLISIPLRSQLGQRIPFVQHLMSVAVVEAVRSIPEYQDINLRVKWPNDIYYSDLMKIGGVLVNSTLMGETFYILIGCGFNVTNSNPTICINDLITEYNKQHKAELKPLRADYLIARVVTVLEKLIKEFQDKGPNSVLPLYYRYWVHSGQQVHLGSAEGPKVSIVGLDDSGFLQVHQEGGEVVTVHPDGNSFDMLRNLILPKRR
UniProt Q53GQ0: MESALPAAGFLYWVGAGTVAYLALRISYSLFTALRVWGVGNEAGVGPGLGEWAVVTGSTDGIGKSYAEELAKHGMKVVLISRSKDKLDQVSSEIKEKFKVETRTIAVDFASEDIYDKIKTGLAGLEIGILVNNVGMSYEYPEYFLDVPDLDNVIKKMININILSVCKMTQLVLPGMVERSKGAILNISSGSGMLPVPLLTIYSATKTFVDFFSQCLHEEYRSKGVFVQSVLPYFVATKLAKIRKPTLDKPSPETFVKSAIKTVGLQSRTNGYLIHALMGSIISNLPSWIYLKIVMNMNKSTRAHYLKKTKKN
UniProt P34932: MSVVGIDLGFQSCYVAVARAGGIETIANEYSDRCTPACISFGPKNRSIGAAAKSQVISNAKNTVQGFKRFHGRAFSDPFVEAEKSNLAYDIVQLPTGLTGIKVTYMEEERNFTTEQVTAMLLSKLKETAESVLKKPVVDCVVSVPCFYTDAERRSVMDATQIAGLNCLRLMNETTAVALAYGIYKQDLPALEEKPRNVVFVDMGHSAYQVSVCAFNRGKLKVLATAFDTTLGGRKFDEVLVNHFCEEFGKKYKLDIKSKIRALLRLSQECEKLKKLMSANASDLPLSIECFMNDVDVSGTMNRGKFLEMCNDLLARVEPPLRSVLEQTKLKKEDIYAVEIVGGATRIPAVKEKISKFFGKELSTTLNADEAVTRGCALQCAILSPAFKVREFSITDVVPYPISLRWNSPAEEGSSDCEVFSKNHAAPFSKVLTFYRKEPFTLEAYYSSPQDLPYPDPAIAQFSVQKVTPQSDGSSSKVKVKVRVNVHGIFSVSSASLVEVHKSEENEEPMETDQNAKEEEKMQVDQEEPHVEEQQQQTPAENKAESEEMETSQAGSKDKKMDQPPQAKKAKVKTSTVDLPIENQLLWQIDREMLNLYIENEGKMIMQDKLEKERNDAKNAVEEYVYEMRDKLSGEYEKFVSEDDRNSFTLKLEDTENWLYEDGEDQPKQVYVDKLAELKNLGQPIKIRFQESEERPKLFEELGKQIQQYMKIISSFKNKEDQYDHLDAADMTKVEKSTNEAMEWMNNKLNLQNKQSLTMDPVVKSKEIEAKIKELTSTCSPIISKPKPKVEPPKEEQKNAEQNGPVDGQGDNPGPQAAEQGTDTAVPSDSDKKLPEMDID
UniProt Q9NRV9: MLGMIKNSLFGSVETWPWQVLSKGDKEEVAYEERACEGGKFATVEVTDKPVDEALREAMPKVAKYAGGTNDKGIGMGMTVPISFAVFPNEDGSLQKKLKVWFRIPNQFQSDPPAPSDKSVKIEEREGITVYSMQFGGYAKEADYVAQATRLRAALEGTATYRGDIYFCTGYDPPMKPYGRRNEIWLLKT
UniProt P17483: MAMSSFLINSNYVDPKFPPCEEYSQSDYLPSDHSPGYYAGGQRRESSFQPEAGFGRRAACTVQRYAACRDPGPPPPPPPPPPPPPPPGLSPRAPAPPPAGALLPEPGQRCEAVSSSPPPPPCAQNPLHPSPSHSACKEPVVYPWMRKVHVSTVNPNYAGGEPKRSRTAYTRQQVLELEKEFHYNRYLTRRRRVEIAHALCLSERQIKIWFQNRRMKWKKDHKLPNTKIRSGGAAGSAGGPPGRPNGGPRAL
UniProt P31942: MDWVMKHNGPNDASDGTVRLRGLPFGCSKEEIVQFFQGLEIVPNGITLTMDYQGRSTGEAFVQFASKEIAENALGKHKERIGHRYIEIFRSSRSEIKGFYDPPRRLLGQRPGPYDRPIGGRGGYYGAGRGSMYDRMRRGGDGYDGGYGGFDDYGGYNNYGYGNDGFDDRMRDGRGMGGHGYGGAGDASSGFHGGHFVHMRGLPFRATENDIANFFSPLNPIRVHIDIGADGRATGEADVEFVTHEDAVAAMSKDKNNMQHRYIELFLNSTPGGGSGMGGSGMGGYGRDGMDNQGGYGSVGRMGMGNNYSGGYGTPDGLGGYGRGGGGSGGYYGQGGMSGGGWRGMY
UniProt Q58FF7, whole entry, looked up: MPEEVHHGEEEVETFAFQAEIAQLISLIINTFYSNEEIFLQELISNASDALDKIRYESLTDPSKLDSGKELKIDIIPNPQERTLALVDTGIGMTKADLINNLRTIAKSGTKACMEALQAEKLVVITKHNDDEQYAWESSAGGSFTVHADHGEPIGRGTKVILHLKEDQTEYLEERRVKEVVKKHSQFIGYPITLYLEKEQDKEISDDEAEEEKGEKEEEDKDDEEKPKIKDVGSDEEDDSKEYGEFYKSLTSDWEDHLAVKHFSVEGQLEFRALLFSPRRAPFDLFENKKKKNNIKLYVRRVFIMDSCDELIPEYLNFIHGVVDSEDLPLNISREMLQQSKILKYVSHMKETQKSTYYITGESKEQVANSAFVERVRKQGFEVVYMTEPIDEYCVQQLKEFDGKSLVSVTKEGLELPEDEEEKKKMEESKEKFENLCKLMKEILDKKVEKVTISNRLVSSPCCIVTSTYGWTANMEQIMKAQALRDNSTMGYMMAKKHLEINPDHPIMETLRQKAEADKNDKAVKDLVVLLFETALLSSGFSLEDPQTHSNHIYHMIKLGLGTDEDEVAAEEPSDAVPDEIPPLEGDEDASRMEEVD
UniProt P23327: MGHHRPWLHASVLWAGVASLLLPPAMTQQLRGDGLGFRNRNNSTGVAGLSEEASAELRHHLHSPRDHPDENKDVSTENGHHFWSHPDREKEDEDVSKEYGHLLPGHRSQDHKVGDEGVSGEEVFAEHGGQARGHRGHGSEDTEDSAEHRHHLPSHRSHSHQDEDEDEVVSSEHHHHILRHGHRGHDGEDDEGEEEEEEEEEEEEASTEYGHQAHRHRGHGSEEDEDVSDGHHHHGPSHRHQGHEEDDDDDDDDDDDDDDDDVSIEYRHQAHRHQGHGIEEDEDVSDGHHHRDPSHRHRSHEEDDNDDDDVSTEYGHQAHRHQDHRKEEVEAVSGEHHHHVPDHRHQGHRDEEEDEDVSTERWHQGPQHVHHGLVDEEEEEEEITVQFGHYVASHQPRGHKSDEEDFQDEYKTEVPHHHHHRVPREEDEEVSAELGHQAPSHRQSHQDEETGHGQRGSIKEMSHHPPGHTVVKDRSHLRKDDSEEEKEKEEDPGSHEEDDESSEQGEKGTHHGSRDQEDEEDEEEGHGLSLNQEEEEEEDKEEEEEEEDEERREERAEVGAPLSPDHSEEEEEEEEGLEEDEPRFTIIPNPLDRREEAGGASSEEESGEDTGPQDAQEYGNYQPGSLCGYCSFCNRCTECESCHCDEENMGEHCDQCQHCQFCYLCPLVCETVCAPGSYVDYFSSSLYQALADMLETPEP
UniProt Q8TCT9: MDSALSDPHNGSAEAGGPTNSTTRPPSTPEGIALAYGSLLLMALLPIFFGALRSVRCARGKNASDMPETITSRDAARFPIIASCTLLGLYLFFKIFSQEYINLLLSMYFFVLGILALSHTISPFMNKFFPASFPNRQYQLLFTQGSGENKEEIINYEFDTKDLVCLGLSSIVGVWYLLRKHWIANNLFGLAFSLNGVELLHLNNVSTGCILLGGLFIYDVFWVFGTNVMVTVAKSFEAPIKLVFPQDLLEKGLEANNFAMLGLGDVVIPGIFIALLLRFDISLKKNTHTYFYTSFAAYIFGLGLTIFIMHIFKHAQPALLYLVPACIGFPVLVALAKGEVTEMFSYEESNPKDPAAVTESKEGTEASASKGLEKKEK
UniProt Q8TDG4: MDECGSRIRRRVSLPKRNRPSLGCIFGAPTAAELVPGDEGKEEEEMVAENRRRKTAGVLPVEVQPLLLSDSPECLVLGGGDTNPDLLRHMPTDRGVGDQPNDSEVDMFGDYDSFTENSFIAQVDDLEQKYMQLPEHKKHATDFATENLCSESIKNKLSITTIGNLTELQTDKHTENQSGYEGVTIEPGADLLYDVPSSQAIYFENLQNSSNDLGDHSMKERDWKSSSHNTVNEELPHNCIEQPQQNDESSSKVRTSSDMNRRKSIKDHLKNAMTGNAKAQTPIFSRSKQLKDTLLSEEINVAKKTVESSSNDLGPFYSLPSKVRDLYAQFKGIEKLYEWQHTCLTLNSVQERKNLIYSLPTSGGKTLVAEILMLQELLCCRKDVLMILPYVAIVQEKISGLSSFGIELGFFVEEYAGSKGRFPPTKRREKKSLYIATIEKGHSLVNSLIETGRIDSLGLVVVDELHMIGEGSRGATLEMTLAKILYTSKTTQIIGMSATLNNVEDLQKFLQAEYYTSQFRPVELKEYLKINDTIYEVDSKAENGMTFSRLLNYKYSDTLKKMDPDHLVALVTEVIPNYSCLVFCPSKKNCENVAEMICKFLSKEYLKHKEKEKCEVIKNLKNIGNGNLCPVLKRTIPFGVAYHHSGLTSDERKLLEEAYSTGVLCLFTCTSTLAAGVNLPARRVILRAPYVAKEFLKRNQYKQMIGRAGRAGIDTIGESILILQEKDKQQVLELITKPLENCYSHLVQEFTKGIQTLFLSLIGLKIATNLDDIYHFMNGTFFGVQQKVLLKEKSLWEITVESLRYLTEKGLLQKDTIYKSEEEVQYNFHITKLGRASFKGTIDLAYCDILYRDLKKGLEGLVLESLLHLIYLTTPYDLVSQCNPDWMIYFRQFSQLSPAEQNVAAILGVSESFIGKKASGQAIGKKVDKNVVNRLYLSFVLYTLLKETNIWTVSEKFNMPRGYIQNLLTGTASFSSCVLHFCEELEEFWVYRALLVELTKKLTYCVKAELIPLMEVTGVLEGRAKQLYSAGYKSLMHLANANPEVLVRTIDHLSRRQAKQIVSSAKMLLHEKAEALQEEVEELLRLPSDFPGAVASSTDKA

Key:
Assay in all cases: log2 fold change, soluble protein after heating vs DMSO (PISA); higher = thermal stabilisation; K562 lysate, 10 uM; active = over 0.2 and 3.5 SD of the protein, either way, in both replicates (recomputed)
lapatinib = compound: CS(=O)(=O)CCNCc1ccc(-c2ccc3ncnc(Nc4ccc(OCc5cccc(F)c5)c(Cl)c4)c3c2)o1 [lapatinib]
Procedure, shortened: (§1)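 Quantification was by TMTpro 16plex LC-MS/MS with equalised channel sums, applied to the supernatant after 21,000xg for 90 min. Samples were crude K562 extract at 1 mg/mL protein in PBS pH 7.4 with 1 mM MgCl2, treated with 10 μM compound for 30 min, heated for 3 min across 48°C-58°C, pooled and brought to 0.5% NP-40 at 4°C. Values are log-two fold changes in thermal stability relative to solvent controls, from duplicates.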

pictilisib = compound: CS(=O)(=O)N1CCN(Cc2cc3nc(-c4cccc5[nH]ncc45)nc(N4CCOCC4)c3s2)CC1 [pictilisib]
Procedure, shortened: as §1

crizotinib = compound: C[C@@H](Oc1cc(-c2cnn(C3CCNCC3)c2)cnc1N)c1c(Cl)ccc(F)c1Cl [crizotinib]
Procedure, shortened: as §1

[1] = compound: C[C@H](C1=CC=C(C=C1)C(=O)NC2=C3C=CNC3=NC=C2)N
Procedure, shortened: as §1

duvelisib = compound: C[C@H](Nc1ncnc2nc[nH]c12)c1cc2cccc(Cl)c2c(=O)n1-c1ccccc1 [duvelisib]
Procedure, shortened: as §1

gandotinib = compound: Cc1cc(Nc2cc(CN3CCOCC3)c3nc(C)c(Cc4ccc(Cl)cc4F)n3n2)n[nH]1 [gandotinib]
Procedure, shortened: as §1

tozasertib = compound: Cc1cc(Nc2cc(N3CCN(C)CC3)nc(Sc3ccc(NC(=O)C4CC4)cc3)n2)n[nH]1 [tozasertib]
Procedure, shortened: as §1

doramapimod = compound: Cc1ccc(-n2nc(C(C)(C)C)cc2NC(=O)Nc2ccc(OCCN3CCOCC3)c3ccccc23)cc1 [doramapimod]
Procedure, shortened: as §1

bafetinib = compound: Cc1ccc(NC(=O)c2ccc(CN3CC[C@H](N(C)C)C3)c(C(F)(F)F)c2)cc1Nc1nccc(-c2cncnc2)n1 [bafetinib]
Procedure, shortened: as §1

[2] = compound: Cc1cccc(CC(=O)N2CCc3c2ccc(-c2cn(C)c4ncnc(N)c24)c3F)n1
Procedure, shortened: as §1

nilotinib = compound: Cc1cn(-c2cc(NC(=O)c3ccc(C)c(Nc4nccc(-c5cccnc5)n4)c3)cc(C(F)(F)F)c2)cn1 [nilotinib]
Procedure, shortened: as §1

[3] = compound: Cc1nc(Nc2n[nH]c3c2CN(C(=O)N[C@H](CN(C)C)c2ccccc2)C3(C)C)c2sccc2n1
Procedure, shortened: as §1

dasatinib = compound: Cc1nc(Nc2ncc(C(=O)Nc3c(C)cccc3Cl)s2)cc(N2CCN(CCO)CC2)n1 [dasatinib]
Procedure, shortened: as §1

[4] = compound: Cc1ncc(-c2ccnc(Nc3ccc(S(C)(=O)=O)cc3)n2)n1C(C)C
Procedure, shortened: as §1

[5] = compound: Cn1cc(-c2ccc3c(c2)CCN3C(=O)Cc2cccc(C(F)(F)F)c2)c2c(N)ncnc21
Procedure, shortened: as §1

quisinostat = compound: Cn1cc(CNCC2CCN(c3ncc(C(=O)NO)cn3)CC2)c2ccccc21 [quisinostat]
Procedure, shortened: as §1

tipifarnib = compound: Cn1cncc1[C@@](N)(c1ccc(Cl)cc1)c1ccc2c(c1)c(-c1cccc(Cl)c1)cc(=O)n2C [tipifarnib]
Procedure, shortened: as §1

[6] = compound: NC(=O)Nc1cc(-c2cccc(F)c2)sc1C(=O)N[C@H]1CCCNC1
Procedure, shortened: as §1

[7] = compound: NC(=O)c1cnc(N[C@@H]2CCCC[C@@H]2N)nc1Nc1cccc(-n2nccn2)c1
Procedure, shortened: as §1

[8] = compound: NC1(c2ccc(-c3nc4ccn5c(=O)[nH]nc5c4cc3-c3ccccc3)cc2)CCC1
Procedure, shortened: as §1

Row | Target | log2 fold change (lapatinib) | log2 fold change (pictilisib) | log2 fold change (crizotinib) | log2 fold change [1] | log2 fold change (duvelisib) | log2 fold change (gandotinib) | log2 fold change (tozasertib) | log2 fold change (doramapimod) | log2 fold change (bafetinib) | log2 fold change [2] | log2 fold change (nilotinib) | log2 fold change [3] | log2 fold change (dasatinib) | log2 fold change [4] | log2 fold change [5] | log2 fold change (quisinostat) | log2 fold change (tipifarnib) | log2 fold change [6] | log2 fold change [7] | log2 fold change [8]
1 | HMGCS1 (UniProt Q01581) | inactive: 0.077 | inactive: 0.018 | inactive: 0.001 | inactive: -0.031 | inactive: 0.003 | inactive: 0.006 | inactive: -0.006 | inactive: 0.036 | inactive: 0.013 | inactive: -0.004 | inactive: 0.003 | inactive: -0.015 | inactive: 0.02 | inactive: 0.012 | inactive: -0.005 | inactive: -0.007 | inactive: 0.001 | inactive: -0.016 | inactive: -0.008 | inactive: -0.018
2 | HSPA1L (UniProt P34931) | inactive: -0.081 | inactive: -0.042 | inactive: 0.055 | inactive: -0.037 | inactive: 0.104 | inactive: 0.012 | inactive: 0.068 | inactive: 0.025 | inactive: 0.002 | inactive: 0.01 | inactive: -0.011 | inactive: -0.017 | inactive: 0.068 | inactive: 0.014 | inactive: -0.052 | inactive: 0.191 | inactive: -0.017 | inactive: 0.052 | inactive: 0.065 | inactive: -0.065
3 | HLCS (UniProt P50747) | inactive: -0.026 | inactive: -0.022 | inactive: -0.009 | inactive: 0.199 | inactive: 0.016 | inactive: -0.002 | inactive: 0.006 | inactive: 0.026 | inactive: -0.045 | inactive: -0.007 | inactive: -0.005 | inactive: -0.005 | inactive: 0.012 | inactive: -0.003 | inactive: 0.068 | inactive: -0.022 | inactive: -0.006 | inactive: -0.011 | inactive: 0.024 | inactive: 0.02
4 | HSD17B12 (UniProt Q53GQ0) | active: 0.31 | inactive: -0.034 | inactive: -0.025 | inactive: -0.158 | inactive: -0.08 | active: 0.41 | inactive: 0.011 | inactive: 0.047 | inactive: -0.019 | inactive: 0.149 | inactive: -0.024 | inactive: -0.04 | inactive: 0.016 | inactive: 0.033 | inactive: 0.007 | inactive: 0.073 | inactive: -0.118 | inactive: 0.058 | inactive: 0.012 | inactive: -0.045
5 | HSP90AA4P (UniProt Q58FG1) | inactive: -0.035 | inactive: -0.129 | inactive: -0.032 | active: -0.464 | inactive: 0.011 | inactive: 0.042 | inactive: 0.08 | inactive: -0.034 | inactive: -0.235 | inactive: 0.128 | inactive: -0.157 | inactive: 0.052 | inactive: 0.029 | inactive: -0.062 | inactive: 0.038 | inactive: -0.145 | inactive: 0.01 | inactive: -0.065 | inactive: -0.047 | inactive: -0.024
6 | HNRNPU (UniProt Q00839) | inactive: -0.003 | inactive: -0.007 | inactive: 0.032 | inactive: 0.05 | inactive: 0.002 | inactive: -0.091 | inactive: 0.002 | inactive: 0.002 | inactive: 0.019 | inactive: -0.065 | inactive: -0.022 | inactive: 0.002 | inactive: -0.032 | inactive: 0.013 | inactive: 0.01 | inactive: -0.002 | inactive: 0.037 | inactive: 0.029 | inactive: 0.001 | inactive: 0.005
7 | HSPA4 (UniProt P34932) | inactive: 0.011 | inactive: -0.003 | inactive: 0.013 | inactive: -0.018 | inactive: 0.001 | inactive: 0 | inactive: 0.006 | inactive: -0.006 | inactive: 0.016 | inactive: 0.007 | inactive: -0.013 | inactive: 0.017 | inactive: 0.012 | inactive: 0.006 | inactive: 0.016 | inactive: 0.034 | inactive: 0.026 | inactive: -0.012 | inactive: 0.001 | inactive: 0.012
8 | HIRIP3 (UniProt Q9BW71) | inactive: 0.001 | inactive: 0.032 | inactive: -0.027 | inactive: 0.04 | inactive: -0.044 | inactive: 0.029 | inactive: 0.016 | inactive: 0.039 | inactive: 0.033 | inactive: -0.044 | inactive: -0.018 | inactive: -0.014 | inactive: 0.009 | inactive: -0.028 | inactive: -0.022 | inactive: -0.018 | inactive: 0.014 | inactive: -0.01 | inactive: -0.024 | inactive: -0.004
9 | HEBP1 (UniProt Q9NRV9) | inactive: 0.026 | inactive: 0.08 | inactive: 0.201 | inactive: 0.033 | inactive: 0 | inactive: 0.138 | inactive: 0.026 | inactive: -0.045 | inactive: 0.056 | inactive: -0.038 | inactive: 0 | inactive: -0.039 | inactive: 0.14 | inactive: -0.043 | inactive: -0.03 | inactive: 0.023 | inactive: 0.001 | inactive: -0.051 | inactive: -0.028 | inactive: -0.097
10 | HOXB4 (UniProt P17483) | inactive: -0.081 | inactive: -0.086 | inactive: 0.043 | inactive: -0.044 | inactive: -0.149 | inactive: -0.017 | inactive: -0.007 | inactive: 0.025 | inactive: -0.052 | inactive: 0.025 | inactive: -0.024 | inactive: 0.126 | inactive: -0.007 | inactive: 0.043 | inactive: -0.176 | inactive: -0.009 | inactive: 0.008 | inactive: -0.059 | inactive: 0.085 | 
11 | HNRNPH3 (UniProt P31942) | inactive: -0.007 | inactive: 0.04 | inactive: -0.141 | inactive: -0.038 | inactive: -0.045 | inactive: -0.016 | inactive: -0.002 | inactive: 0.035 | inactive: -0.074 | inactive: 0.022 | inactive: -0.218 | inactive: 0.052 | inactive: -0.024 | inactive: 0.072 | inactive: 0.043 | inactive: -0.154 | inactive: -0.003 | inactive: 0.067 | inactive: 0.019 | inactive: -0.002
12 | HSP90AB3P (UniProt Q58FF7) | inactive: -0.01 | inactive: -0.031 | inactive: 0.047 | inactive: -0.031 | inactive: 0.007 | inactive: -0.047 | inactive: -0.027 | inactive: -0.134 | inactive: -0.098 | inactive: 0.06 | inactive: -0.039 | inactive: 0.157 | inactive: 0.014 | inactive: 0.171 | inactive: 0.038 | inactive: 0.074 | inactive: 0.039 | inactive: 0.045 | inactive: -0.021 | inactive: 0.031
13 | HSP90AA1 isoform 2 (UniProt P07900) | inactive: -0.007 | inactive: 0.009 | inactive: 0.011 | inactive: 0.08 | inactive: 0.007 | inactive: -0.063 | inactive: 0.005 | inactive: -0.029 | inactive: 0.024 | inactive: -0.046 | inactive: 0.004 | inactive: 0.001 | inactive: 0.012 | inactive: 0.01 | inactive: -0.002 | inactive: 0.017 | inactive: 0.011 | inactive: 0.003 | inactive: -0.008 | inactive: 0.012
14 | HRC (UniProt P23327) | inactive: -0.018 | inactive: 0.001 | inactive: -0.04 | inactive: -0.014 | inactive: -0.134 | inactive: 0.104 | inactive: -0.042 | inactive: -0.01 | inactive: -0.064 | inactive: 0.051 | inactive: 0.006 | inactive: 0.025 | inactive: -0.049 | inactive: -0.043 | inactive: 0.061 | inactive: -0.072 | inactive: -0.036 | inactive: -0.003 | inactive: 0.047 | inactive: -0.033
15 | HM13 (UniProt Q8TCT9) | inactive: 0.031 | inactive: 0.025 | inactive: 0.043 | inactive: 0.158 | inactive: -0.121 | inactive: 0.11 | inactive: -0.17 | inactive: -0.078 | inactive: 0.004 | inactive: -0.065 | inactive: 0.107 | inactive: 0.015 | inactive: -0.012 | inactive: -0.071 | inactive: -0.003 | inactive: -0.031 | inactive: -0.116 | inactive: -0.026 | inactive: -0.079 | inactive: 0
16 | HELQ (UniProt Q8TDG4) | inactive: 0.002 | inactive: -0.009 | inactive: -0.011 | inactive: -0.014 | inactive: 0.025 | inactive: 0.012 | inactive: -0.01 | inactive: 0.042 | inactive: -0.109 | inactive: -0.033 | active: -0.486 | active: -0.433 | inactive: 0.021 | inactive: 0.051 | inactive: -0.028 | inactive: -0.024 | inactive: 0.033 | inactive: -0.013 | inactive: 0.122 | inactive: 0.009

Record cards, as listed above. Values in the order: log2 fold change (lapatinib)	log2 fold change (pictilisib)	log2 fold change (crizotinib)	log2 fold change [1]	log2 fold change (duvelisib)	log2 fold change (gandotinib)	log2 fold change (tozasertib)	log2 fold change (doramapimod)	log2 fold change (bafetinib)	log2 fold change [2]	log2 fold change (nilotinib)	log2 fold change [3]	log2 fold change (dasatinib)	log2 fold change [4]	log2 fold change [5]	log2 fold change (quisinostat)	log2 fold change (tipifarnib)	log2 fold change [6]	log2 fold change [7]	log2 fold change [8]
HEBP1 (UniProt Q9NRV9) as listed: inactive: 0.026	inactive: 0.08	inactive: 0.201	inactive: 0.033	inactive: 0	inactive: 0.138	inactive: 0.026	inactive: -0.045	inactive: 0.056	inactive: -0.038	inactive: 0	inactive: -0.039	inactive: 0.14	inactive: -0.043	inactive: -0.03	inactive: 0.023	inactive: 0.001	inactive: -0.051	inactive: -0.028	inactive: -0.097
HIRIP3 (UniProt Q9BW71) as listed: inactive: 0.001	inactive: 0.032	inactive: -0.027	inactive: 0.04	inactive: -0.044	inactive: 0.029	inactive: 0.016	inactive: 0.039	inactive: 0.033	inactive: -0.044	inactive: -0.018	inactive: -0.014	inactive: 0.009	inactive: -0.028	inactive: -0.022	inactive: -0.018	inactive: 0.014	inactive: -0.01	inactive: -0.024	inactive: -0.004
